This note sets out measurements from publication PMC7862700.

Sequences of proteins named here, by UniProt entry; tags and fusion partners are left off. A change or cut given only in a name is not applied to a line headed by its entry.
UniProt P41161: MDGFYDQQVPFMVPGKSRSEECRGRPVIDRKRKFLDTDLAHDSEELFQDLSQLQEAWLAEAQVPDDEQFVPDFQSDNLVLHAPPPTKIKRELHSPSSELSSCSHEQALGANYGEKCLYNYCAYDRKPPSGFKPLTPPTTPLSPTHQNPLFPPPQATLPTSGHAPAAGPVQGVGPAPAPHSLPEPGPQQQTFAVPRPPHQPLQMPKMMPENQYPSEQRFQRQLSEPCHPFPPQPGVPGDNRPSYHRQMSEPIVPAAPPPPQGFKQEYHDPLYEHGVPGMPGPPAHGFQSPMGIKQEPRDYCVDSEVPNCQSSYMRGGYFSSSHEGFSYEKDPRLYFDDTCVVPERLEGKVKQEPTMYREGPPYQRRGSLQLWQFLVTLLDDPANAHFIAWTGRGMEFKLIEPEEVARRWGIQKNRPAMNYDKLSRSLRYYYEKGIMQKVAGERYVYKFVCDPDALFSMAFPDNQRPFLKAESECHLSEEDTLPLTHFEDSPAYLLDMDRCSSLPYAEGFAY
UniProt Q01892: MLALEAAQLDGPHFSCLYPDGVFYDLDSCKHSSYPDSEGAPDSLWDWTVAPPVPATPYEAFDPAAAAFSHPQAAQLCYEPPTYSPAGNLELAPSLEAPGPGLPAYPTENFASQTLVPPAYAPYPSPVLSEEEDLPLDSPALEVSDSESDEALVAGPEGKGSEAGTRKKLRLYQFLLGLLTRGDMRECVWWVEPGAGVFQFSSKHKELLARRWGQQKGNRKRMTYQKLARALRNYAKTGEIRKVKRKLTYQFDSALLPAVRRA
UniProt Q99607: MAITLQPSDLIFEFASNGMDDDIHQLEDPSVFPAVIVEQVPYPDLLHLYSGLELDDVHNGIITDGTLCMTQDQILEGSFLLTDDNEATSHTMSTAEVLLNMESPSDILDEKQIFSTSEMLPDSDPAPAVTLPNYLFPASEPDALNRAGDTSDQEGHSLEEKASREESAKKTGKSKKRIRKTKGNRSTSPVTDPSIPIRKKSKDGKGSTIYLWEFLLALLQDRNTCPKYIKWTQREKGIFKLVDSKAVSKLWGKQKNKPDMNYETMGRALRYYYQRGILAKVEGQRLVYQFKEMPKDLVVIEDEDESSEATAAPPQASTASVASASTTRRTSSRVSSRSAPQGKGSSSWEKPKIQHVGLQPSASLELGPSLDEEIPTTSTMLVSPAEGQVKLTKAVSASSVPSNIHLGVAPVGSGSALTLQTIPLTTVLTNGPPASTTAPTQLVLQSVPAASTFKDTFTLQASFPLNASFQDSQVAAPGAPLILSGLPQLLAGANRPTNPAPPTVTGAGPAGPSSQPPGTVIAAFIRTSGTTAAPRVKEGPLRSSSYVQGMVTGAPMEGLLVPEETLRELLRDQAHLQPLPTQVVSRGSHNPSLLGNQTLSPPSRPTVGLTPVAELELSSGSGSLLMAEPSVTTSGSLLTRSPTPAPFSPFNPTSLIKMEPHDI

This is a selection; strong and weak results do not stand in their true shares. At the low end of the ranking, values are background and their order means little.

Holding throughout (assay): DAPPL (digital affinity profiling via proximity ligation, sequencing)
Common to all, as to details: 10 mM Tris-HCl pH 7.5, 50 mM NaCl, 1 mM DTT, 4% glycerol, room temperature, 30 min; GST-TFs on glutathione beads, 16-mer random dsDNA library, 0.1% …; high values mean tight binding; double strand, one strand shown; scale: fold enrichment (6-mer frequency, TF over GST control)

Assay [1] has as its target T1, FLI1 (UniProt Q01543).
T1 sequence: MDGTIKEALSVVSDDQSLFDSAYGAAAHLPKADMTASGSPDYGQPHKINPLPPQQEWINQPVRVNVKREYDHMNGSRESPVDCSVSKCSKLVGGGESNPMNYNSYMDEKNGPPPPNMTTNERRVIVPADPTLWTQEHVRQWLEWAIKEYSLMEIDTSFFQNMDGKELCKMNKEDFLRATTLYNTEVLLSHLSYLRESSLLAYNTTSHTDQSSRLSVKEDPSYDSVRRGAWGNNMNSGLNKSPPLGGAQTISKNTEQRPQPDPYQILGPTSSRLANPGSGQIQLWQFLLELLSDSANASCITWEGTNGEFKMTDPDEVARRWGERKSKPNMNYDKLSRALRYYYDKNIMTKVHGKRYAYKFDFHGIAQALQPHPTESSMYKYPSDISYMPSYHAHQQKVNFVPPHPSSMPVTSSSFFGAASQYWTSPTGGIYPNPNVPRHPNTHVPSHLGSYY

For assay [2], the target named is ETV5 (UniProt P41161).
The target in assay [3] is T2, ETV2 (UniProt O00321).
T2 sequence: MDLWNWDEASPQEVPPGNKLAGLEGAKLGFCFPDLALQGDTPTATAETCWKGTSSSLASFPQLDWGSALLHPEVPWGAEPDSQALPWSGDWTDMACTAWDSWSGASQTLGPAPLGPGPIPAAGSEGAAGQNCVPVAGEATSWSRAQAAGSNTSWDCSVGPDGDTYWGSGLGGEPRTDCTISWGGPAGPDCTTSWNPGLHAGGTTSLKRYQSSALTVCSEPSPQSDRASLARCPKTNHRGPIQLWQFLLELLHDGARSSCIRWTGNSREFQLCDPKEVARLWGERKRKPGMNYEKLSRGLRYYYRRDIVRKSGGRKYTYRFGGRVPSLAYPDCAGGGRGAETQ

The target in assay [4] is T3, ETV3L (UniProt Q6ZN32).
T3 sequence: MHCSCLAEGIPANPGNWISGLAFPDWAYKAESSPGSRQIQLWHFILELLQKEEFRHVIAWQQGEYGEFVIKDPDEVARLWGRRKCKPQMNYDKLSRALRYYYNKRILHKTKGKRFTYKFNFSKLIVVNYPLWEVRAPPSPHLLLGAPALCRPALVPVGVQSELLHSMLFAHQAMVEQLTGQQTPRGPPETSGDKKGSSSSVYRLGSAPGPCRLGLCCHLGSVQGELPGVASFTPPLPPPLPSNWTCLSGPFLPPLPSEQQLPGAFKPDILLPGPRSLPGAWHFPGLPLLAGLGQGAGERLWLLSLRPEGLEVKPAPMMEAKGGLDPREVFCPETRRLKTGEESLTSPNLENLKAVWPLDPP

Assay [5] has as its target T4, EHF (UniProt Q9NZC4).
T4 sequence: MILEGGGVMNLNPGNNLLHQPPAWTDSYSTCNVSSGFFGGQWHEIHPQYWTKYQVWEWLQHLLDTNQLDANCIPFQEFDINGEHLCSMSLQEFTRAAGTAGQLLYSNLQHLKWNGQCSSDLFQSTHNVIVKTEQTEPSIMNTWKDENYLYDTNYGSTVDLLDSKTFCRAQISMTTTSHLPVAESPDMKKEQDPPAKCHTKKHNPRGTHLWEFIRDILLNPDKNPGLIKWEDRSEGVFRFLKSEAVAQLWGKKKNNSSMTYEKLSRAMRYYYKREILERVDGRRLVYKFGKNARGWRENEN

In assay [6] the target is SPIB (UniProt Q01892).
Assay [7] has as its target ELF4 (UniProt Q99607).

Turning to CACCCT, the results for the binding signal in assay [1], in assay [2] and in assay [3] were 1.21, 1.19 and 1.26, respectively.

On to GCTCGA, for which the values for the binding signal in assay [1], in assay [2] and in assay [3] were 1.22, 1.22 and 1.07, respectively.

As to GCCGCT, the binding signal was 1.09 in assay [1], 0.991 in assay [2] and 0.938 in assay [3].

Regarding TTGGTC, the binding signal in assay [1] worked out at 1.16; in assay [2] it was 1.1; in assay [3], 0.984; in assay [4] it was 1.08.

AGTCCC: the results for the binding signal in assay [1], in assay [2] and in assay [3] were 0.957, 1.04 and 0.93, respectively.

As to GCCGAA, the binding signal in assay [1] was determined as 0.947; in assay [2], 0.979; in assay [3], 0.871; in assay [4], 0.961.

Consider GCGTTT, for which the binding signal in assay [1] is 1.1; in assay [2], 1.09; in assay [3], 1.11; in assay [4] it was 1.11.

As for AGCAAT, the binding signal amounted to 1.07 in assay [1], 1.14 in assay [2] and 1.14 in assay [3].

Consider CTGACA, for which the binding signal stood at 1.19 in assay [1], 1.22 in assay [2] and 1.2 in assay [3].

As for TTGCGA, the results for the binding signal in assay [1], in assay [2] and in assay [3] were 1.19, 1.15 and 1.1, respectively.

As to CTAGAT, the binding signal in assay [1] is 1.13; in assay [5], 1.17; in assay [2], 1.19; in assay [3], 1.17; in assay [4], 1.34.

Turning to TCCACT, the binding signal is 1.47 in assay [1], 1.49 in assay [2], 1.48 in assay [3] and 1.49 in assay [4].

Take ATCGCT: the binding signal in assay [1] was found to be 1.09; in assay [2] it was 1.07; in assay [3] it was 0.924.

With GGCTTT, the binding signal amounted to 0.934 in assay [1], 0.934 in assay [6], 0.974 in assay [2] and 0.976 in assay [7].

Consider TACACT, for which the binding signal in assay [1] turned out to be 1.41; in assay [2] it was 1.5; in assay [3], 1.46.

As for CTTACT, the figures for the binding signal in assay [1], in assay [2] and in assay [3] were 1.38, 1.28 and 1.39, respectively.

In the case of TTTCGC, the results for the binding signal in assay [1], in assay [2] and in assay [3] were 1.11, 1.08 and 1.39, respectively.

On to TGCAGA, for which the binding signal is 0.983 in assay [1]; 0.937 in assay [5]; 0.966 in assay [2]; 0.958 in assay [3]; 0.905 in assay [4].

CATATG: the binding signal came out at 0.886 in assay [1], 0.987 in assay [2] and 0.966 in assay [3].

For the sequence CCGCGG, the binding signal in assay [1] turned out to be 0.995; in assay [5], 0.938; in assay [2], 0.815; in assay [3] it was 0.756; in assay [4] it was 0.989.

As to CGTTGC, the values for the binding signal in assay [1], in assay [2] and in assay [3] were 1.09, 0.978 and 1.12, respectively.

In the case of ATATAA, the binding signal in assay [1] amounted to 1.15; in assay [2], 1.15; in assay [3], 1.24.

On to GCAGCA, for which the binding signal in assay [1] stood at 0.918; in assay [5], 0.972; in assay [2], 0.992; in assay [3], 1.01; in assay [4] it was 0.943.

Consider CAAATC, for which the binding signal worked out at 1.06 in assay [1], 1.14 in assay [2] and 1.1 in assay [3].

Regarding GCTTAA, the binding signal was 0.936 in assay [1]; 0.992 in assay [5]; 0.968 in assay [2]; 0.83 in assay [3]; 1.05 in assay [4].

For the sequence TTTAAT, the binding signal was determined as 1.4 in assay [1], 1.32 in assay [2] and 1.06 in assay [3].

With GTGGCC, the binding signal was 0.99 in assay [1]; 0.971 in assay [5]; 0.864 in assay [2]; 0.989 in assay [3]; 0.977 in assay [4].

Consider TAGTGG, for which the binding signal amounted to 1.18 in assay [1], 1.11 in assay [2] and 1.15 in assay [3].

As for CGTTTA, the binding signal in assay [1] is 1.08; in assay [2] it was 0.99; in assay [3], 1.03.

Consider GTATGA, for which the binding signal in assay [1] amounted to 0.967; in assay [5] it was 0.935; in assay [2], 0.977; in assay [3], 0.853; in assay [4] it was 0.979.

GACCGG: the binding signal in assay [1] was 0.949; in assay [2], 1.12; in assay [3], 0.957; in assay [4], 1.08.

Regarding GCGAAT, the binding signal is 0.944 in assay [1]; 1.17 in assay [5]; 0.935 in assay [2]; 0.932 in assay [3]; 1.06 in assay [4].

Turning to AATCCG, the binding signal in assay [1] worked out at 1.53; in assay [6] it was 1.68; in assay [2] it was 1.65; in assay [7], 1.46.

For CATCCT, the binding signal amounted to 1.68 in assay [1], 1.63 in assay [2] and 1.63 in assay [3].

In the case of ATATCT, the binding signal in assay [1] was 1.25; in assay [2], 1.1; in assay [3], 1.3.

GGCTAC: the figures for the binding signal in assay [1], in assay [2] and in assay [3] were 1.17, 1.22 and 0.929, respectively.

ACGTAC: the results for the binding signal in assay [1], in assay [2] and in assay [3] were 1.24, 1.21 and 1.32, respectively.
